Experimental data: the supplement of paper PMC10849652
This is one part of the list.

Protein sequences, listed by entry. Tags and fused reporters are not part of them. Lines headed by an entry give the natural chain unless they say otherwise; changes in a name come on top.
UniProt Q8WUQ7: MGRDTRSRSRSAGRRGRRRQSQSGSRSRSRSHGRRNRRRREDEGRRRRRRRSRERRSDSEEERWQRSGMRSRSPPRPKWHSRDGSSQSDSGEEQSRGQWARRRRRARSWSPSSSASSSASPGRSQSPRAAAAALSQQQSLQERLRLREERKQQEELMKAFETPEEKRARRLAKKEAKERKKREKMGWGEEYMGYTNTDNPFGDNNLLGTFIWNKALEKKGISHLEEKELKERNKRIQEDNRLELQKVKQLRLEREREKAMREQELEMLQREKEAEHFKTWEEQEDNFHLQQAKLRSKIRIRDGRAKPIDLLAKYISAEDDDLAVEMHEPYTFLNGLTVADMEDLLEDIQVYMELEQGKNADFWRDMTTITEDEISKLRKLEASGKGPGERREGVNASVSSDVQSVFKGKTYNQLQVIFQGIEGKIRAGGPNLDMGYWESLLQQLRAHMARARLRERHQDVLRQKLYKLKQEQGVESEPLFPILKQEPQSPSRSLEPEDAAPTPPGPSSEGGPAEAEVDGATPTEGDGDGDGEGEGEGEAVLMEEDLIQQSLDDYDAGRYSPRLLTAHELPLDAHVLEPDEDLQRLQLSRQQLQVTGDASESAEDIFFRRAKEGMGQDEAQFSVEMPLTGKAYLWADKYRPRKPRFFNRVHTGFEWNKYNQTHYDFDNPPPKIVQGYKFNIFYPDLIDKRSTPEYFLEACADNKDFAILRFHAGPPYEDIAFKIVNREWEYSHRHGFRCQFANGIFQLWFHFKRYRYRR
UniProt Q5T6V5: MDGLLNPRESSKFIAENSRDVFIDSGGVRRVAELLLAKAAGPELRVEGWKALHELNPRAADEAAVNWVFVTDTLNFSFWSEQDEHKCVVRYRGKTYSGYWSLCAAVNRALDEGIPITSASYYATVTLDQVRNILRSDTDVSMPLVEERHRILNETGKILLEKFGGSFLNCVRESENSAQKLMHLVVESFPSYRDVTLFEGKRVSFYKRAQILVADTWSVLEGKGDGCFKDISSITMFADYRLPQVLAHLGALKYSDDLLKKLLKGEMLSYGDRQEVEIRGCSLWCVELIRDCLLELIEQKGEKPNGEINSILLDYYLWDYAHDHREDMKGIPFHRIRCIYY
UniProt P07384: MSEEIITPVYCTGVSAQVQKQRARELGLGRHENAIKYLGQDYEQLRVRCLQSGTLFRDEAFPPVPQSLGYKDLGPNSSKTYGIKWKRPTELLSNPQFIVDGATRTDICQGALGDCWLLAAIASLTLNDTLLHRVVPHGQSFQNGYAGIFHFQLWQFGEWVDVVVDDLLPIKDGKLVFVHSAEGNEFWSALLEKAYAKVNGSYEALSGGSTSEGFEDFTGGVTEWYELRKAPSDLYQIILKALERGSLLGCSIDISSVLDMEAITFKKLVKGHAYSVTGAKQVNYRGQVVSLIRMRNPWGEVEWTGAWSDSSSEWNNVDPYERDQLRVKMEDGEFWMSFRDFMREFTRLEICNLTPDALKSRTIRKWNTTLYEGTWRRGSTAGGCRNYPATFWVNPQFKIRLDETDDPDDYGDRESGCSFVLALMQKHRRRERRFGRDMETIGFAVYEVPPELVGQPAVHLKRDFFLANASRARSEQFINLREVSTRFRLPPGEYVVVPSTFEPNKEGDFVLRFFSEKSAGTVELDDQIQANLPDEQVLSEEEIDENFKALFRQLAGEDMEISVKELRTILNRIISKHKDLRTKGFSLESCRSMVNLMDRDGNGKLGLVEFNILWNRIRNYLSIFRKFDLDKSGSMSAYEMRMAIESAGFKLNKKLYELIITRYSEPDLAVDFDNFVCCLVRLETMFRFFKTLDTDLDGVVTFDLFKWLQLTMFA
UniProt Q8WVQ1: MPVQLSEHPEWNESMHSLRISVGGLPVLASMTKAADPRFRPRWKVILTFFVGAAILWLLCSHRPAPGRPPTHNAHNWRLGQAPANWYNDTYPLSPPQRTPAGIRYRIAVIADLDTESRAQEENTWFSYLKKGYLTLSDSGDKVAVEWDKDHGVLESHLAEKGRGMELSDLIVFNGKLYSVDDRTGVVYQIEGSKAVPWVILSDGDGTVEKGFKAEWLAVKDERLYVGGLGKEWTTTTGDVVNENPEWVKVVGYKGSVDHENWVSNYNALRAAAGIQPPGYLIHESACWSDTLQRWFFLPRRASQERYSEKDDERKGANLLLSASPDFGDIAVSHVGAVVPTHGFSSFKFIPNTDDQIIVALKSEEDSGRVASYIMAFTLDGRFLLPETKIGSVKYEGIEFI
UniProt Q9H8G2: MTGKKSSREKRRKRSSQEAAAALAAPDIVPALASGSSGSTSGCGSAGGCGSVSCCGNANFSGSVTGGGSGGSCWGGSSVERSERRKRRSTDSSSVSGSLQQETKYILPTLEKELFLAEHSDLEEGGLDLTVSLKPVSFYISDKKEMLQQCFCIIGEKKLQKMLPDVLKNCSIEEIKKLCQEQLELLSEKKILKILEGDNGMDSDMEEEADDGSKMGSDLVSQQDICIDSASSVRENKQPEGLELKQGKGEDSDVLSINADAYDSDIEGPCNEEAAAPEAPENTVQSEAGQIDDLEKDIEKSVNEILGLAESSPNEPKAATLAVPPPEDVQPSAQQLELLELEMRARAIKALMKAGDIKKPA
UniProt Q01518, whole entry, looked up: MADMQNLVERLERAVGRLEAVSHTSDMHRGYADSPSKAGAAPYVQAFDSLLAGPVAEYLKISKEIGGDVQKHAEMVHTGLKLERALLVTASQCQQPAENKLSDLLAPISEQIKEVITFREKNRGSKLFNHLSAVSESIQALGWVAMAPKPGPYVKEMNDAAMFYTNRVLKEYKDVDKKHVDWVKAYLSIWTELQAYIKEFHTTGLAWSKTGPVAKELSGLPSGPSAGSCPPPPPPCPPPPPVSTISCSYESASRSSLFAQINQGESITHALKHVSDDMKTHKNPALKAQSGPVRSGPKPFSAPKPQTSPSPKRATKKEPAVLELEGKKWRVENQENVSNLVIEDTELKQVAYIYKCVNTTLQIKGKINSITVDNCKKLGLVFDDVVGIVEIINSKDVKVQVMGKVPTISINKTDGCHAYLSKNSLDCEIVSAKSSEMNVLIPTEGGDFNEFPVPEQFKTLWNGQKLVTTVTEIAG
UniProt P17655: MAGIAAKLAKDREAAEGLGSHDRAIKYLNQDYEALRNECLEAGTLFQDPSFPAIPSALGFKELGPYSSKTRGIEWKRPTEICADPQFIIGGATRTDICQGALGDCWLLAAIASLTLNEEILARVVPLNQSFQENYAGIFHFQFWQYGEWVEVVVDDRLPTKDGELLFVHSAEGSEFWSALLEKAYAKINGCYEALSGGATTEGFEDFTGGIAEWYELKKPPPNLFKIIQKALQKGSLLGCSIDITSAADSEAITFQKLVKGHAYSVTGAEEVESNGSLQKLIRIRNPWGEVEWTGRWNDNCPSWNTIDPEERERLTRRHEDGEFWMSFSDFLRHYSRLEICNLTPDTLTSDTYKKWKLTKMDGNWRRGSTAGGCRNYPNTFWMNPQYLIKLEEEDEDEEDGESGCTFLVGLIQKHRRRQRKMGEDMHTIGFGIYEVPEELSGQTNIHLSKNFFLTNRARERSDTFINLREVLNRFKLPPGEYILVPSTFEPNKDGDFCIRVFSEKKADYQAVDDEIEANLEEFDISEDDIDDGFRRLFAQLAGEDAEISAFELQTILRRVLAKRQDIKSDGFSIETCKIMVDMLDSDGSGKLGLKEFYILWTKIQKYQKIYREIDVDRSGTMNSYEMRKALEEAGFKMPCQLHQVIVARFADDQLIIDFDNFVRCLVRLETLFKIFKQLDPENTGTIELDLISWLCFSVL
UniProt Q8TCD1: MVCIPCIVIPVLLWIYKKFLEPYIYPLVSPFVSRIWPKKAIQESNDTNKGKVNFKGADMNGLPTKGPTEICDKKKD
UniProt P27824: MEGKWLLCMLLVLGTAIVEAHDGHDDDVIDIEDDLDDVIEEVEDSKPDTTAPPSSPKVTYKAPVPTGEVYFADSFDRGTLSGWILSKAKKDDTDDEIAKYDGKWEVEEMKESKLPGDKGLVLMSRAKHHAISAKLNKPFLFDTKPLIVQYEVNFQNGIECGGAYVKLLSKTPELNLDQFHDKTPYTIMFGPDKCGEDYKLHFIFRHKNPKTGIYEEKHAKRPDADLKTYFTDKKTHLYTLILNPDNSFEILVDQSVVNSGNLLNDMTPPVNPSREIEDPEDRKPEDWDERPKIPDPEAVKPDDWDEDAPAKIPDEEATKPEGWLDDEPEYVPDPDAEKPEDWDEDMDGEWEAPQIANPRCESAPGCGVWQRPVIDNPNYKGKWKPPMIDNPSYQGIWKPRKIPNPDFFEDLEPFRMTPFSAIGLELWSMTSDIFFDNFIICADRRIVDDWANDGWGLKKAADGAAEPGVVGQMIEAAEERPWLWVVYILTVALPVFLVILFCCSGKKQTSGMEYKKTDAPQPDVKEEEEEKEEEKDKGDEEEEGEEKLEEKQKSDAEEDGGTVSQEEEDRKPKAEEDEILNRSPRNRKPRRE
UniProt Q14444, whole entry, looked up: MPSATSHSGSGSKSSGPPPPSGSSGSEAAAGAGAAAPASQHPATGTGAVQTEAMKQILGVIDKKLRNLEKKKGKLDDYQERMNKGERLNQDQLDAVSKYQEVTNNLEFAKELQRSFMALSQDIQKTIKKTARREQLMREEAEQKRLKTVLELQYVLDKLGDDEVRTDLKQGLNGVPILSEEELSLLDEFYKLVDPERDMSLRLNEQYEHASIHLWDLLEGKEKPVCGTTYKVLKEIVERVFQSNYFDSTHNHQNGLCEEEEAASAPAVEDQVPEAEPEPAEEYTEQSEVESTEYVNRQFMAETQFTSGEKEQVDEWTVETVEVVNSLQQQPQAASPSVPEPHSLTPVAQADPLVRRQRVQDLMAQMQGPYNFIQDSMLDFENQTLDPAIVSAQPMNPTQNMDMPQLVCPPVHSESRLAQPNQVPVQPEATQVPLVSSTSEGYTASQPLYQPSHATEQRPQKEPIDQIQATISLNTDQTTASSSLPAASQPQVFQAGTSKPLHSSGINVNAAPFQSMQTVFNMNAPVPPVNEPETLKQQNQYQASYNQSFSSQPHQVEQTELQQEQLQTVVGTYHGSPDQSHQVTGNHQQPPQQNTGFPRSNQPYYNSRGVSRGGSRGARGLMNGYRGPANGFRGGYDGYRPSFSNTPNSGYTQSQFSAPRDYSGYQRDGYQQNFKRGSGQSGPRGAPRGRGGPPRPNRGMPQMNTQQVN
UniProt Q7L1Q6: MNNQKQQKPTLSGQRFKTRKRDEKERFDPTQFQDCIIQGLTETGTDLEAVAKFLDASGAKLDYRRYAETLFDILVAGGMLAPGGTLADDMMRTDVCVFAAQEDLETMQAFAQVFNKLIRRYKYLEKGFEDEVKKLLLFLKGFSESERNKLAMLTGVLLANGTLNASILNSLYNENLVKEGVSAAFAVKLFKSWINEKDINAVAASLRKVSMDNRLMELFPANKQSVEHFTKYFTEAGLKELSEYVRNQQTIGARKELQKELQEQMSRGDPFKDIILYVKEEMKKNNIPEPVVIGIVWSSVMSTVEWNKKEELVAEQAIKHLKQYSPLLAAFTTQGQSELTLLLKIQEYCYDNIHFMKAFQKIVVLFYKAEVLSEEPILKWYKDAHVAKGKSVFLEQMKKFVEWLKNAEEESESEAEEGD
UniProt O43709: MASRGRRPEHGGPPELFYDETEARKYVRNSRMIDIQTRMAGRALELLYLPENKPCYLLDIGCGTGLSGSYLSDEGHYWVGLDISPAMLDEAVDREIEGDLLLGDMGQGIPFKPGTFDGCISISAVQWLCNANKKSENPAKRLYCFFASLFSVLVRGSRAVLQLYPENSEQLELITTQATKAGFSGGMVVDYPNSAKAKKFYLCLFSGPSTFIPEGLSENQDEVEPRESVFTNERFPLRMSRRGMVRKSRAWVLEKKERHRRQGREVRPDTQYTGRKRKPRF
UniProt Q6UWU4: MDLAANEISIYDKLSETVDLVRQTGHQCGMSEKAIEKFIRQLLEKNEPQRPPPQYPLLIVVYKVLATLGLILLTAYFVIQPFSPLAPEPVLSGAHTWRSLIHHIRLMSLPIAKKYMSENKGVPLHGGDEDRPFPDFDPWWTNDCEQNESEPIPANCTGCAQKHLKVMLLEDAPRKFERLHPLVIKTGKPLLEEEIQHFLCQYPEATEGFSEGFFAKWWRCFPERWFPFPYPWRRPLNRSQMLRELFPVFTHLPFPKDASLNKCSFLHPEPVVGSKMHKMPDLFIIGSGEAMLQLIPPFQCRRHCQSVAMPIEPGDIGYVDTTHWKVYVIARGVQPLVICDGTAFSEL
UniProt P04632: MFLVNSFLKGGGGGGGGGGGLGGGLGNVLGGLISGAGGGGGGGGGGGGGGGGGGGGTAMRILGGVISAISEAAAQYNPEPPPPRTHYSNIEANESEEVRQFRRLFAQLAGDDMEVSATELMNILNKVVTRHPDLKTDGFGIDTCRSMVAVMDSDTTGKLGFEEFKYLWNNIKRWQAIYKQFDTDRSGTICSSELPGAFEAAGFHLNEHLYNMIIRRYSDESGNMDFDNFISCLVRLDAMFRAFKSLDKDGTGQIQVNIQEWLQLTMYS

Columns and labels:
Assay in all cases: log2 fold change, soluble protein after heating vs DMSO (PISA); higher = thermal stabilisation; K562 lysate, 10 uM; active = over 0.2 and 3.5 SD of the protein, either way, in both replicates (recomputed)
[1] = compound: C#Cc1cccc(Nc2ncnc3cc(OCCOC)c(OCCOC)cc23)c1 [erlotinib]
Summary of the method: (§1)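 Log-two fold change in thermal stability relative to solvent controls is reported from duplicates. For each sample, crude K562 extract from dounce-homogenised pellets in PBS pH 7.4 with 1 mM MgCl2, at 1 mg/mL protein, was treated with 10 μM compound for 30 min. Aliquots heated for 3 min across 48°C-58°C were pooled, brought to 0.5% NP-40 at 4°C and cleared at 21,000xg for 90 min. The supernatant was quantified by TMTpro 16plex LC-MS/MS with channel sums equalised.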

[2] = compound: C/C(=N\NC(=O)C1=CC(=CC=C1)S(=O)(=O)N2CCOCC2)/C3=C(C=CC(=C3)Cl)O
Summary of the method: as §1

[3] = compound: C1=CC(=CC=C1C2=NC3=C(N2)C=C(C=C3)C(=O)N)OC4=CC=C(C=C4)Cl
Summary of the method: as §1

[4] = compound: C1=CC2=C(C=CC(=C2)/C=C\3/C(=O)NC(=NCC4=CC=CS4)S3)N=C1
Summary of the method: as §1

[5] = compound: C1=CC2=NC=CN=C2C=C1/C=C/3\C(=O)NC(=O)S3
Summary of the method: as §1

[6] = compound: C1=CC=C(C=C1)C2=NC(=C(N2)C3=CC=NC=C3)C4=CC(=C(C=C4)Cl)O
Summary of the method: as §1

[7] = compound: C1=CC=C2C(=C1)C3=NNC4=CC=CC(=C43)C2=O
Summary of the method: as §1

[8] = compound: C1CCN(C1)C(=O)NC2=CC=CC(=C2)NC3=NC=C(C(=N3)NCCC4=CN=CN4)Br
Summary of the method: as §1

[9] = compound: C1CN(CCC1(CC2=CC=C(C=C2)Cl)N)C3=NC=NC4=C3C=CN4
Summary of the method: as §1

[10] = compound: C1COCCN1CCN2C3=CC=CC=C3N=C2NC(=O)C4=CC(=CC=C4)[N+](=O)[O-] [IRAK-1-4 Inhibitor I]
Summary of the method: as §1

Measured: log2 fold change

CACTIN isoform 2 (UniProt Q8WUQ7)
inactive: [1] 0.067 | [2] -0.002 | [3] -0.008 | [4] -0.023 | [5] -0.054 | [6] -0.032 | [7] 0.001 | [8] -0.032 | [9] 0.001 | [10] 0.046

CAPN7 (UniProt Q9Y6W3)
inactive: [1] -0.004 | [2] -0.088 | [3] 0.027 | [4] 0.003 | [5] -0.026 | [6] -0.124 | [7] -0.034 | [8] -0.042 | [9] 0.027 | [10] 0.027

C9orf64 (UniProt Q5T6V5)
inactive: [1] 0.016 | [2] 0.037 | [3] 0.041 | [4] -0.003 | [5] 0.007 | [6] -0.006 | [7] -0.035 | [8] -0.006 | [9] -0.004 | [10] -0.015

CALM2 (UniProt P0DP24)
inactive: [1] -0.089 | [2] 0.042 | [3] 0.062 | [4] 0.028 | [5] -0.117 | [6] 0.094 | [7] 0.001 | [8] 0.039 | [9] 0.118 | [10] 0.221

C11orf68 isoform 3 (UniProt Q9H3H3)
inactive: [1] -0.019 | [2] -0.006 | [3] 0.079 | [4] -0.01 | [5] -0.004 | [6] 0.006 | [7] 0.03 | [8] -0.037 | [9] 0.034 | [10] 0.03

CAPN1 (UniProt P07384)
inactive: [1] -0.034 | [2] -0.037 | [3] 0.014 | [4] 0.025 | [5] -0.007 | [6] -0.016 | [7] 0.012 | [8] -0.054 | [9] -0.023 | [10] 0.014

C5orf22 (UniProt Q49AR2)
inactive: [1] -0.047 | [2] -0.073 | [3] 0.024 | [4] -0.01 | [5] 0.003 | [6] 0.024 | [7] -0.011 | [8] -0.007 | [9] 0.035 | [10] -0.012

BUB1B isoform 3 (UniProt O60566)
inactive: [1] 0.019 | [2] 0.013 | [3] -0.002 | [4] -0.026 | [5] 0.01 | [6] 0.021 | [7] -0.039 | [8] -0.031 | [9] -0.008 | [10] -0.016

C3orf38 (UniProt Q5JPI3)
inactive: [1] -0.029 | [2] -0.018 | [3] 0.087 | [4] 0.006 | [5] 0.001 | [6] 0.02 | [7] -0.062 | [8] -0.038 | [9] 0.005 | [10] -0.003

CANT1 (UniProt Q8WVQ1)
inactive: [1] 0.012 | [2] -0.021 | [3] -0.038 | [4] 0.01 | [5] -0.026 | [6] 0.006 | [7] 0.001 | [8] 0.013 | [9] -0.022 | [10] 0.01

CAPZA2 (UniProt P47755)
inactive: [1] -0.009 | [2] 0.005 | [3] -0.013 | [4] -0.005 | [5] 0.01 | [6] -0.011 | [7] 0.015 | [8] 0.03 | [9] 0.014 | [10] 0.006

CAAP1 (UniProt Q9H8G2)
inactive: [1] 0.028 | [2] -0.027 | [3] 0.025 | [4] -0.017 | [5] -0.048 | [6] 0.032 | [7] -0.038 | [8] 0.025 | [9] 0.023 | [10] -0.007

CAP1 (UniProt Q01518)
inactive: [1] 0.017 | [2] 0.047 | [3] -0.004 | [4] 0.01 | [5] 0.008 | [6] -0.052 | [7] 0.034 | [8] -0.013 | [9] -0.004 | [10] 0.001

C5orf51 (UniProt A6NDU8)
inactive: [1] 0.024 | [2] 0.004 | [3] -0.008 | [4] -0.026 | [5] 0.04 | [6] 0.007 | [7] -0.038 | [8] -0.027 | [9] 0.055 | [10] -0.025

CAPN2 (UniProt P17655)
inactive: [1] -0.022 | [2] -0.027 | [3] 0.002 | [4] 0.019 | [5] 0.001 | [6] -0.005 | [7] 0 | [8] -0.031 | [9] -0.007 | [10] 0.012

C12orf29 (UniProt Q8N999)
inactive: [1] -0.003 | [2] -0.009 | [3] 0.016 | [4] -0.026 | [5] 0.04 | [6] -0.001 | [7] -0.009 | [8] -0.061 | [9] -0.023 | [10] -0.032

BUB3 (UniProt O43684)
inactive: [1] -0.02 | [2] 0 | [3] 0.017 | [4] -0.001 | [5] -0.003 | [6] -0.017 | [7] 0.004 | [8] -0.022 | [9] 0.022 | [10] 0.013

Reprinted at random: two records from the list.
CAPN1 (UniProt P07384)
inactive: [1] -0.034 | [2] -0.037 | [3] 0.014 | [4] 0.025 | [5] -0.007 | [6] -0.016 | [7] 0.012 | [8] -0.054 | [9] -0.023 | [10] 0.014

C5orf22 (UniProt Q49AR2)
inactive: [1] -0.047 | [2] -0.073 | [3] 0.024 | [4] -0.01 | [5] 0.003 | [6] 0.024 | [7] -0.011 | [8] -0.007 | [9] 0.035 | [10] -0.012

Remaining list, next part:

CAD (UniProt P27708)
inactive: [1] 0.013 | [2] 0.003 | [3] -0.015 | [4] 0.032 | [5] 0.013 | [6] -0.006 | [7] -0.008 | [8] -0.002 | [9] 0.011 | [10] -0.004

C18orf32 (UniProt Q8TCD1)
inactive: [1] 0.089 | [2] 0.126 | [3] 0.009 | [4] -0.06 | [5] -0.026 | [6] 0.011 | [7] 0.003 | [8] -0.049 | [9] -0.032 | [10] -0.026

C4A (UniProt P0C0L4)
inactive: [1] -0.017 | [2] 0.024 | [3] 0.009 | [4] -0.094 | [5] -0.042 | [6] 0.034 | [7] 0.023 | [8] -0.051 | [9] 0.006 | [10] 0.044

C1orf50 (UniProt Q9BV19)
inactive: [1] -0.067 | [2] -0.005 | [3] -0.047 | [4] -0.013 | [5] -0.007 | [6] -0.078 | [7] -0.022 | [8] 0.045 | [9] -0.016 | [10] -0.003

C8orf37 (UniProt Q96NL8)
inactive: [1] -0.006 | [2] -0.174 | [3] 0.029 | [4] -0.064 | [5] 0.005 | [6] 0.001 | [7] 0.037 | [8] -0.067 | [9] 0.007 | [10] -0.047

CANX isoform 2 (UniProt P27824)
inactive: [1] 0.007 | [2] -0.027 | [3] 0.048 | [4] 0.004 | [5] 0 | [6] -0.007 | [7] -0.042 | [8] 0 | [9] 0.013 | [10] 0.003

CAPRIN1 (UniProt Q14444)
inactive: [1] -0.011 | [2] 0.03 | [3] 0.003 | [4] -0.015 | [5] 0 | [6] 0.024 | [7] 0.018 | [8] -0.015 | [9] -0.025 | [10] 0.019

BZW1 isoform 3 (UniProt Q7L1Q6)
inactive: [1] 0.025 | [2] 0.026 | [3] -0.024 | [4] 0.006 | [5] 0.02 | [6] -0.005 | [7] 0 | [8] 0.019 | [9] -0.02 | [10] -0.019

BUD23 isoform 3 (UniProt O43709)
inactive: [1] 0.074 | [2] -0.046 | [3] 0.009 | [4] -0.008 | [5] -0.097 | [6] -0.02 | [7] -0.01 | [8] -0.026 | [9] -0.033 | [10] -0.017

C6orf89 isoform 2 (UniProt Q6UWU4)
inactive: [1] -0.008 | [2] 0.041 | [3] 0.001 | [4] 0.015 | [5] -0.009 | [6] 0.043 | [7] -0.111 | [8] 0.022 | [9] 0.026 | [10] -0.002

CAPNS1 (UniProt P04632)
inactive: [1] -0.066 | [2] 0.001 | [3] -0.023 | [4] 0.025 | [5] 0.006 | [6] -0.008 | [7] 0.082 | [8] -0.007 | [9] -0.039 | [10] -0.005

C11orf54 (UniProt Q9H0W9)
inactive: [1] 0.031 | [2] -0.086 | [3] 0.063 | [4] 0.03 | [5] 0.025 | [6] -0.001 | [7] 0.014 | [8] 0.029 | [9] -0.023 | [10] -0.005
